± gives the uncertainty stated by the source. Many of these values have a large error.
Assay: self-splicing fitness, log relative to wild type (ln ratio); higher = more splicing; Tetrahymena group I intron in knt gene, E. coli kanamycin selection, DiMSum; sequences stand for … in CUCUCU…GGAGGGAAAAGUUAUCAGGCAUGCACCUGGUAGCUAGUCUUUAAACCAAUAGAUUGCAUCGGUUUAAAAGGCAAGACCGUCAAAUUGCGGGAAAGGGGUCAACAGCCGUUCAGUACCAAGUCUCAGGGGAAACUUUGAGAUGGCCUUGCAAAGGGUAUGGUAAUAAGCUGACGGACAUGGUCCUAACCACGCAGCCAAGUCCUAAGUCAACAGAUCUUCUGUUGAUAUGGAUGCAGUUCACAGACUAAAUGUCGGUCGGGGAAGAUGUAUUCUUCUCAUAAGAUAUAGUCGGACCUCUCCUUAAUGGGAGCUAGCGGAUGAAGUGAUGCAACACUGGAGCCGCUGGGAACUAAUUUGUAUGCGAAAGUAUAUUGAUUAGUUUUGGAGUACUCGUGGUCG
Method in brief: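 Six replicate transformations of E. coli BL21(DE3) with a pET-22b(+) library were grown overnight at 37°C or 30°C. The library randomised all eight P1ex-region intron nucleotides, the intron lying in the knt kanamycin-resistance gene, and plates were LB agar with or without 25 μg/mL kanamycin plus 100 μg/mL carbenicillin, 50 μM IPTG and 0.2% rhamnose. Pooled colonies were amplicon-sequenced on an Illumina HiSeq 2500, and fitness is the DiMSum error-weighted combination of wild-type-normalised replicate fold changes, kanamycin versus none.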

Sequence | self-splicing fitness (ln) (37 °C) | self-splicing fitness (ln) (30 °C)
CGAGAGCAAUAUUACGGACC | -1.77 ± 0.54 | –
UUUUAGCAAUAUUACGGCAC | -0.642 ± 0.28 | -2.85 ± 0.62
GUCCAGCAAUAUUACGCCAA | -2.72 ± 0.16 | -2.63 ± 0.18
GUUUAGCAAUAUUACGCCGA | -1.78 ± 0.58 | –
GAAGAGCAAUAUUACGUCCA | -2.4 ± 0.55 | –
GGUAAGCAAUAUUACGCGCU | -1.11 ± 0.54 | -2.52 ± 0.68
AACGAGCAAUAUUACGACAC | – | -4.43 ± 0.73
GCUGAGCAAUAUUACGGAGU | – | -3.87 ± 0.6
AUUAAGCAAUAUUACGCCGC | – | -3.43 ± 1
CAAGAGCAAUAUUACGUCCC | – | -4.2 ± 0.52
CCGGAGCAAUAUUACGGAGG | – | -4.17 ± 0.51
UCCGAGCAAUAUUACGCGAC | -1.58 ± 0.4 | -2.63 ± 0.41
GUGGAGCAAUAUUACGCCCG | -1.76 ± 0.81 | -3.06 ± 0.54
GCGCAGCAAUAUUACGCACG | – | -3.8 ± 0.59
UGUAAGCAAUAUUACGGAAU | – | -4.13 ± 0.78
CUCUAGCAAUAUUACGACUC | -1.23 ± 0.55 | -2.19 ± 0.69
ACAUAGCAAUAUUACGGCUG | -0.366 ± 0.095 | -0.175 ± 0.067
GAACAGCAAUAUUACGCCAC | -3.26 ± 0.6 | –
CUCGAGCAAUAUUACGGGAC | -2.41 ± 0.27 | -3.8 ± 0.24
GGUCAGCAAUAUUACGGCCC | -2.1 ± 0.79 | -2.66 ± 0.54
UCAUAGCAAUAUUACGUAAU | -2.61 ± 0.28 | -3.87 ± 0.48
ACUGAGCAAUAUUACGACCG | -0.981 ± 0.23 | -1.3 ± 0.17
ACAGAGCAAUAUUACGCAAG | -2.33 ± 0.25 | -3.99 ± 0.39
GUCAAGCAAUAUUACGCACU | -0.433 ± 0.072 | -1.71 ± 0.062

Sequence | self-splicing fitness (ln) (37 °C) | self-splicing fitness (ln) (30 °C)
AUGGAGCAAUAUUACGACCA | -0.897 ± 0.61 | -2.09 ± 1.4
AAAGAGCAAUAUUACGAAUG | -2.75 ± 0.54 | –
CGUCAGCAAUAUUACGGGAU | -2.66 ± 0.2 | -4.7 ± 0.39
CUCGAGCAAUAUUACGUUAC | – | -4.9 ± 0.72
GCGUAGCAAUAUUACGUCCC | -0.216 ± 0.68 | –
AGUGAGCAAUAUUACGUCCG | – | -2.65 ± 1.1
CAGUAGCAAUAUUACGCCGU | -0.37 ± 0.19 | -2.93 ± 0.36
GAGAAGCAAUAUUACGGGAU | -2.58 ± 0.2 | -3.32 ± 0.16
GACGAGCAAUAUUACGGGGU | – | -4.2 ± 0.51
CUUCAGCAAUAUUACGAGCA | – | -4.17 ± 0.6
CGGGAGCAAUAUUACGGCUA | -2.25 ± 0.51 | –
UUGCAGCAAUAUUACGGAAU | -3.14 ± 0.61 | –
GGUGAGCAAUAUUACGUUUU | -1.6 ± 0.23 | -2.94 ± 0.26
CGAGAGCAAUAUUACGGCUA | -0.839 ± 0.57 | –
UGGCAGCAAUAUUACGAGGC | -2.78 ± 0.53 | –
GCAUAGCAAUAUUACGCCUU | – | -4.54 ± 0.51
GGUUAGCAAUAUUACGCCCC | -1.98 ± 1.1 | –
CGGGAGCAAUAUUACGUAAA | -2.13 ± 0.58 | –
CGGGAGCAAUAUUACGUCAA | -2.79 ± 0.38 | -2.14 ± 0.19
CAGUAGCAAUAUUACGUCGC | – | -3.06 ± 0.75
UCACAGCAAUAUUACGGACC | – | -3.6 ± 0.78
GAGGAGCAAUAUUACGGUAG | -3.48 ± 0.59 | -4.41 ± 0.6
UCAAAGCAAUAUUACGCGAG | -0.54 ± 0.14 | -0.91 ± 0.12
UAAUAGCAAUAUUACGGUCC | -0.635 ± 0.55 | -2.53 ± 0.33

Sequence | self-splicing fitness (ln) (37 °C) | self-splicing fitness (ln) (30 °C)
UAGGAGCAAUAUUACGAAUA | -1.05 ± 0.65 | –
AUUUAGCAAUAUUACGGGUC | – | -3.57 ± 1
GGCUAGCAAUAUUACGAUAG | – | -4.13 ± 0.59
CAGGAGCAAUAUUACGGAAC | -2.53 ± 0.5 | -3.67 ± 0.43
AGCGAGCAAUAUUACGUUGC | – | -3.61 ± 0.53
GACGAGCAAUAUUACGUGUC | – | -4.29 ± 0.59
GAACAGCAAUAUUACGAUUG | -1.26 ± 0.11 | -1.62 ± 0.082
CUAAAGCAAUAUUACGGCUG | -0.0492 ± 0.089 | 0.0357 ± 0.069
AUGGAGCAAUAUUACGCCGG | -1.65 ± 0.54 | –
UUUGAGCAAUAUUACGCUAA | -2.32 ± 0.65 | –
UCAGAGCAAUAUUACGCCGG | -1.74 ± 0.59 | –
UGAGAGCAAUAUUACGUUUA | -2.54 ± 1.1 | –
AAGGAGCAAUAUUACGAAGC | -3.39 ± 0.75 | -3.73 ± 0.74
UUCUAGCAAUAUUACGCCAU | -3.35 ± 0.52 | –
UAAGAGCAAUAUUACGCACA | – | -2.33 ± 0.87
CAUAAGCAAUAUUACGUUGG | -1.26 ± 0.094 | -2.6 ± 0.095
AGUAAGCAAUAUUACGCUUC | -2.03 ± 0.64 | -3.44 ± 0.56
UGCUAGCAAUAUUACGCCGC | -2.25 ± 0.64 | -2.62 ± 1.1
GUGGAGCAAUAUUACGGUGA | – | -2.44 ± 0.55
UGCAAGCAAUAUUACGAGUA | 0.181 ± 0.083 | -0.888 ± 0.083
CAAAAGCAAUAUUACGAGCC | -1.87 ± 0.56 | –
UCUCAGCAAUAUUACGCGAG | -0.582 ± 0.15 | -3.73 ± 0.37
CGUUAGCAAUAUUACGCCGU | – | -3.27 ± 0.76
CUGUAGCAAUAUUACGCAAA | 0.0981 ± 1.2 | –

Given field by field: entries from further up.
ACAUAGCAAUAUUACGGCUG
  self-splicing fitness (ln) (37 °C) = -0.366 ± 0.095
  self-splicing fitness (ln) (30 °C) = -0.175 ± 0.067
GAACAGCAAUAUUACGCCAC
  self-splicing fitness (ln) (37 °C) = -3.26 ± 0.6

More records.

Sequence | self-splicing fitness (ln) (37 °C) | self-splicing fitness (ln) (30 °C)
GUAUAGCAAUAUUACGGGGC | – | -4.73 ± 1
CGAGAGCAAUAUUACGGAAA | -3.06 ± 0.52 | –
CGGGAGCAAUAUUACGCCAU | – | -2.76 ± 0.55
GAGGAGCAAUAUUACGUCAA | -3.62 ± 0.52 | –
GUGGAGCAAUAUUACGAGCU | -2.01 ± 0.28 | -3.17 ± 0.26
CCGGAGCAAUAUUACGGUCA | -3.18 ± 0.52 | –
UGGGAGCAAUAUUACGAAGC | -2.03 ± 0.81 | -4.46 ± 0.6
CUUUAGCAAUAUUACGCCCC | -1.79 ± 0.67 | –
CGCGAGCAAUAUUACGGAGC | – | -5.17 ± 1
GAUGAGCAAUAUUACGCGGG | -3.59 ± 0.47 | -3.55 ± 0.42
UGGUAGCAAUAUUACGGAGG | -1.56 ± 0.16 | -3.85 ± 0.27
AGUAAGCAAUAUUACGUCGC | – | -3.27 ± 1.1
CUUUAGCAAUAUUACGAAGG | -1.85 ± 0.21 | -1.23 ± 0.11
UCGAAGCAAUAUUACGGGGC | -3.09 ± 0.52 | -4.36 ± 1
GAUGAGCAAUAUUACGCAGG | – | -3.18 ± 0.52
AGGGAGCAAUAUUACGGUAU | – | -0.572 ± 0.76
UAGUAGCAAUAUUACGGAAG | – | -4.64 ± 0.59
CGUCAGCAAUAUUACGCUUG | 0.41 ± 0.12 | -1.03 ± 0.098
CUAUAGCAAUAUUACGCCAA | – | -3.24 ± 0.56
UACGAGCAAUAUUACGAAUA | -2.87 ± 0.48 | -3.28 ± 0.47
CGCAAGCAAUAUUACGUUUC | -2.21 ± 0.23 | -2.92 ± 0.16
UUUUAGCAAUAUUACGGAGC | -2.37 ± 0.49 | -2.24 ± 0.38
UCGGAGCAAUAUUACGCCAG | -0.778 ± 0.64 | -3.92 ± 0.6
AGUGAGCAAUAUUACGGUAA | – | -1.77 ± 0.69

Sequence | self-splicing fitness (ln) (37 °C) | self-splicing fitness (ln) (30 °C)
UGGGAGCAAUAUUACGAAAG | -2.8 ± 0.62 | –
CCUUAGCAAUAUUACGGGUU | – | -3.63 ± 0.53
GAGUAGCAAUAUUACGGUCC | -1.15 ± 0.87 | –
UUAGAGCAAUAUUACGGUCC | -2.47 ± 1.1 | –
UCGGAGCAAUAUUACGGUGC | -2.74 ± 0.61 | -5.09 ± 1
UUGGAGCAAUAUUACGACGG | -0.775 ± 0.29 | 0.664 ± 0.22
UGUUAGCAAUAUUACGAAGC | – | -2.15 ± 0.72
CGCGAGCAAUAUUACGCCGA | -2.65 ± 0.53 | -2.95 ± 0.75
GUCGAGCAAUAUUACGGCCU | -2.23 ± 0.64 | –
UGCAAGCAAUAUUACGAAUC | -3.22 ± 0.73 | –
GGAGAGCAAUAUUACGACUA | -1.06 ± 0.65 | -1.52 ± 0.93
UCGUAGCAAUAUUACGAUAG | -3.12 ± 0.38 | -3.88 ± 1.1
UAACAGCAAUAUUACGGUCC | -1.99 ± 0.19 | -2.94 ± 0.15
UAAGAGCAAUAUUACGCCUC | -2.11 ± 0.56 | -2.02 ± 1.2
GCAGAGCAAUAUUACGCAUG | – | -3.52 ± 1.1
CGUGAGCAAUAUUACGCUUA | – | -4.63 ± 1
UUGGAGCAAUAUUACGCAAC | -1.38 ± 0.61 | –
GGCUAGCAAUAUUACGACCC | -0.966 ± 0.37 | -1.79 ± 0.36
UGUCAGCAAUAUUACGCAAC | -1.26 ± 0.28 | -2.59 ± 0.33
GAUGAGCAAUAUUACGUAUG | – | -4.97 ± 0.51
UUCGAGCAAUAUUACGGUUC | -3.12 ± 0.6 | -3.6 ± 1

Source: the supplement of paper PMC7877785
